For at least one entry, the source does not settle the construct or the ends of the probe.
Tested on: coagulation factor IXa (FIXa) (Homo sapiens)
Test: binding assay
Conditions: 2'-F pyrimidines; range for family of 16 aptamers; minimal sequence shown; physiologic salt, 37 C

Chains of the proteins cited; added tags and fusions are not shown. Chains listed by the source or under a name are the forms on record and can include a tag or linker.
coagulation factor IXa (FIXa) (Homo sapiens), one chain, as listed by the source, chain 1 of 2: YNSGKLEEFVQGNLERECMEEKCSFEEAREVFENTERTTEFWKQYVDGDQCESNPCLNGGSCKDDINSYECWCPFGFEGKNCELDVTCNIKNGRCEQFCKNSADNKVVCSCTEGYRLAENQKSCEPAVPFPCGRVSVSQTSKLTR

Binding result, binds:
GGAUGGGCGAUAACCAACAUGGUGAUCCCAUUC [FIXa aptamer (FIG. 7, SEQ 10)]
GGGACCAUAACUCUAACGGGUGAAUCCC [FIXa aptamer (FIG. 7, SEQ 14)]
GGGACCAUACGCACAUUGCUGAAUCCC [FIXa aptamer (FIG. 7, SEQ 7)]
GGGAUGGGCUAUAUACACGCUGGUGAUCCCAUCUC [FIXa aptamer (FIG. 7, SEQ 9)]
GGGCGCCAUACGCACAUUGCUGCAUCGCCU [FIXa aptamer (FIG. 7, SEQ 13)]
GGGGACUAUACCGGCAAUCGUGCAUCCCC [FIXa aptamer (FIG. 7, SEQ 3)]
GGGGACUAUACGUGAACGACUGCAUCCAC [FIXa aptamer (FIG. 7, SEQ 15)]
GGGUGAUAACCACUCUGGUGAACCC [FIXa aptamer (FIG. 7, SEQ 17)]
UGGGACCAUAACGACUACUCGUGAAUCCCA [FIXa aptamer (FIG. 7, SEQ 4)]
UGGGACUAUAUUCGGAAUCUGGACUCCCA [FIXa aptamer (FIG. 7, SEQ 8)]
UGGGCACUAUACGCAUCUUGCUGCCUG [FIXa aptamer (FIG. 7, SEQ 5)]
UGGGCCAUAACCACUUUGGUGAACCCA [FIXa aptamer (FIG. 7, SEQ 12)]
UGGGCCAUACGUGGACGACUGCACCCG [FIXa aptamer (FIG. 7, SEQ 11)]
UGGGCGAUAUACACAUUGGUGAUCCCA [FIXa aptamer (FIG. 7, SEQ 6)]
UGGGUAAUAACUGUAUGGUGAACCCA [FIXa aptamer (FIG. 7, SEQ 16)]

— patent US20030083294
